# Measured values: PubChem BioAssay AID1487 (National Center for Advancing Translational Sciences (NCATS), 2009)
# This is one part of the list. The main result of the screen is listed elsewhere. These columns were measured beside it and carry no call. The list favours compounds with an active or inconclusive main result. Words in brackets tell the shape of the fitted curve; partial curves, single points and poor fits give uncertain potencies.
# Assay: qHTS Assay for Modulators of Lamin A Splicing
# Conditions: HeLa LMNA splicing GFP/RFP minigene ratio, 48 h
# Outline: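 S3 HeLa cells stably expressing lamin A-EGFP splicing minigene plus DsRed2, 600 cells/well, 48 h compound exposure at 37C. Laser-scanning cytometry; analysed as GFP (500-530 nm)/RFP (575-640 nm) total intensity ratio; 0.5% DMSO vehicle.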
# [1] = measured here: RFP viability control channel
# [2] = measured here: GFP splicing reporter channel
Structure (SMILES),AC50 [1],AC50 [2]
COc1cc2c(=O)n(Cc3ccco3)c(=O)n(CC(=O)c3cccc(Br)c3)c2cc1OC,"0.0251 µM [falling, single point]",
CC(C)(C)c1ccc(C(=O)NC(=S)Nc2ccc(N3CCOCC3)cc2)cc1,"7.94 µM [rising, partial curve, poor fit]",
CCN1C(=O)/C(=C\c2nc3ccccc3c(=O)n2-c2ccccc2)c2ccccc21,"25.1 µM [rising, single point]",
Nc1c(S(=O)(=O)O)cc(Nc2ccc(Nc3nc(Cl)nc(Nc4ccc(S(=O)(=O)O)cc4)n3)c(S(=O)(=O)O)c2)c2c1C(=O)c1ccccc1C2=O,"3.55 µM [falling, full curve, poor fit]","4.47 µM [falling, partial curve, poor fit]"
O=C(NCC1CCCO1)c1ccc(COc2ccc(Br)cc2)cc1 (stereo not given),"11.2 µM [rising, partial curve]",
N#Cc1c(NC(=O)CSc2nnc(-c3ccncc3)n2CC2CCCO2)sc2c1CCCC2 (stereo not given),"11.2 µM [rising, partial curve, poor fit]","7.94 µM [rising, partial curve, poor fit]"
CC(=O)c1ccc(NC(=O)C(C)Nc2ccc(Cl)cc2)cc1 (stereo not given),"0.0224 µM [rising, full curve, poor fit]","5.62 µM [rising, partial curve]"
O=C(CCCN1C(=O)c2cccc3cccc(c23)C1=O)NC1CCS(=O)(=O)C1 (stereo not given),"31.6 µM [falling, partial curve]","25.1 µM [falling, partial curve]"
CC(=O)N1CCN(Cc2nc3cc(Cl)ccc3c(=O)[nH]2)CC1,"0.0178 µM [falling, full curve]","0.1 µM [falling, full curve]"
CN(C)CC#Cc1cncc(C(=O)NNC(=O)Nc2ccc(Cl)cc2)c1,"3.98 µM [rising, single point]",
O=C(CN1C(=O)/C(=C/c2cccc(Br)c2)SC1=S)NC1=NCCS1,"4.47 µM [rising, partial curve, poor fit]",
COc1ccc2nc(NC(=O)c3ccc(NS(=O)(=O)c4cccs4)cc3)sc2c1,"14.1 µM [rising, single point]",
c1csc(CNc2ncnc3nc[nH]c23)c1,"15.8 µM [rising, single point]",
COC(=O)C(C)(C)ONC(=O)Nc1ccccc1Cl,"3.55 µM [falling, partial curve]",
Cc1ccc(-n2ncc3c(=O)n(CC(=O)NCc4ccco4)cnc32)cc1C,"10 µM [rising, partial curve, poor fit]",

# For convenience, 2 of the compounds above.
Structure (SMILES),AC50 [1],AC50 [2]
COC(=O)C(C)(C)ONC(=O)Nc1ccccc1Cl,"3.55 µM [falling, partial curve]",
Cc1ccc(-n2ncc3c(=O)n(CC(=O)NCc4ccco4)cnc32)cc1C,"10 µM [rising, partial curve, poor fit]",
